# Some of the results follow.
# By UniProt entry, the sequences of proteins in these tests, tags left out. Where a name states a change or a piece, a line headed by the entry shows the natural chain unless it says otherwise.
# UniProt P55072, whole entry, looked up: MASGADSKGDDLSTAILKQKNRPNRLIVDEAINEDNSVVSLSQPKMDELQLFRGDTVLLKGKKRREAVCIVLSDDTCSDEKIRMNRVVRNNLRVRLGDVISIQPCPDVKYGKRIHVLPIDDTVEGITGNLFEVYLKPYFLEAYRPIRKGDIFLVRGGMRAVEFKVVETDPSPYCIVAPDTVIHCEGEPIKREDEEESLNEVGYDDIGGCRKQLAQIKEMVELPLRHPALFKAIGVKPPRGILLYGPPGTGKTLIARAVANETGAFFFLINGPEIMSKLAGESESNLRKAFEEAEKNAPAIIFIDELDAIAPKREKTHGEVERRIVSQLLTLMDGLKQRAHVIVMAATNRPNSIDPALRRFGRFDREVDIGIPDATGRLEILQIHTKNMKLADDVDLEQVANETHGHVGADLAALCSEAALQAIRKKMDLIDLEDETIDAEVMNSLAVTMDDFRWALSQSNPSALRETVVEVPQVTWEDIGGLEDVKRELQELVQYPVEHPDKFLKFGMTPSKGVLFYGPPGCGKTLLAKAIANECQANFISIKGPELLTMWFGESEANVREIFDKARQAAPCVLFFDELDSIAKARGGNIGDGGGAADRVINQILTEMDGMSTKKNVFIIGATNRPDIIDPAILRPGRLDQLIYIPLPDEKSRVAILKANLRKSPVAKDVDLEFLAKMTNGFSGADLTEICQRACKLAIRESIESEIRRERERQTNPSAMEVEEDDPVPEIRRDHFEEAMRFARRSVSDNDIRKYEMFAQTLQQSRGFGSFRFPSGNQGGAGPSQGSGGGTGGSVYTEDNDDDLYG
# UniProt Q709C8: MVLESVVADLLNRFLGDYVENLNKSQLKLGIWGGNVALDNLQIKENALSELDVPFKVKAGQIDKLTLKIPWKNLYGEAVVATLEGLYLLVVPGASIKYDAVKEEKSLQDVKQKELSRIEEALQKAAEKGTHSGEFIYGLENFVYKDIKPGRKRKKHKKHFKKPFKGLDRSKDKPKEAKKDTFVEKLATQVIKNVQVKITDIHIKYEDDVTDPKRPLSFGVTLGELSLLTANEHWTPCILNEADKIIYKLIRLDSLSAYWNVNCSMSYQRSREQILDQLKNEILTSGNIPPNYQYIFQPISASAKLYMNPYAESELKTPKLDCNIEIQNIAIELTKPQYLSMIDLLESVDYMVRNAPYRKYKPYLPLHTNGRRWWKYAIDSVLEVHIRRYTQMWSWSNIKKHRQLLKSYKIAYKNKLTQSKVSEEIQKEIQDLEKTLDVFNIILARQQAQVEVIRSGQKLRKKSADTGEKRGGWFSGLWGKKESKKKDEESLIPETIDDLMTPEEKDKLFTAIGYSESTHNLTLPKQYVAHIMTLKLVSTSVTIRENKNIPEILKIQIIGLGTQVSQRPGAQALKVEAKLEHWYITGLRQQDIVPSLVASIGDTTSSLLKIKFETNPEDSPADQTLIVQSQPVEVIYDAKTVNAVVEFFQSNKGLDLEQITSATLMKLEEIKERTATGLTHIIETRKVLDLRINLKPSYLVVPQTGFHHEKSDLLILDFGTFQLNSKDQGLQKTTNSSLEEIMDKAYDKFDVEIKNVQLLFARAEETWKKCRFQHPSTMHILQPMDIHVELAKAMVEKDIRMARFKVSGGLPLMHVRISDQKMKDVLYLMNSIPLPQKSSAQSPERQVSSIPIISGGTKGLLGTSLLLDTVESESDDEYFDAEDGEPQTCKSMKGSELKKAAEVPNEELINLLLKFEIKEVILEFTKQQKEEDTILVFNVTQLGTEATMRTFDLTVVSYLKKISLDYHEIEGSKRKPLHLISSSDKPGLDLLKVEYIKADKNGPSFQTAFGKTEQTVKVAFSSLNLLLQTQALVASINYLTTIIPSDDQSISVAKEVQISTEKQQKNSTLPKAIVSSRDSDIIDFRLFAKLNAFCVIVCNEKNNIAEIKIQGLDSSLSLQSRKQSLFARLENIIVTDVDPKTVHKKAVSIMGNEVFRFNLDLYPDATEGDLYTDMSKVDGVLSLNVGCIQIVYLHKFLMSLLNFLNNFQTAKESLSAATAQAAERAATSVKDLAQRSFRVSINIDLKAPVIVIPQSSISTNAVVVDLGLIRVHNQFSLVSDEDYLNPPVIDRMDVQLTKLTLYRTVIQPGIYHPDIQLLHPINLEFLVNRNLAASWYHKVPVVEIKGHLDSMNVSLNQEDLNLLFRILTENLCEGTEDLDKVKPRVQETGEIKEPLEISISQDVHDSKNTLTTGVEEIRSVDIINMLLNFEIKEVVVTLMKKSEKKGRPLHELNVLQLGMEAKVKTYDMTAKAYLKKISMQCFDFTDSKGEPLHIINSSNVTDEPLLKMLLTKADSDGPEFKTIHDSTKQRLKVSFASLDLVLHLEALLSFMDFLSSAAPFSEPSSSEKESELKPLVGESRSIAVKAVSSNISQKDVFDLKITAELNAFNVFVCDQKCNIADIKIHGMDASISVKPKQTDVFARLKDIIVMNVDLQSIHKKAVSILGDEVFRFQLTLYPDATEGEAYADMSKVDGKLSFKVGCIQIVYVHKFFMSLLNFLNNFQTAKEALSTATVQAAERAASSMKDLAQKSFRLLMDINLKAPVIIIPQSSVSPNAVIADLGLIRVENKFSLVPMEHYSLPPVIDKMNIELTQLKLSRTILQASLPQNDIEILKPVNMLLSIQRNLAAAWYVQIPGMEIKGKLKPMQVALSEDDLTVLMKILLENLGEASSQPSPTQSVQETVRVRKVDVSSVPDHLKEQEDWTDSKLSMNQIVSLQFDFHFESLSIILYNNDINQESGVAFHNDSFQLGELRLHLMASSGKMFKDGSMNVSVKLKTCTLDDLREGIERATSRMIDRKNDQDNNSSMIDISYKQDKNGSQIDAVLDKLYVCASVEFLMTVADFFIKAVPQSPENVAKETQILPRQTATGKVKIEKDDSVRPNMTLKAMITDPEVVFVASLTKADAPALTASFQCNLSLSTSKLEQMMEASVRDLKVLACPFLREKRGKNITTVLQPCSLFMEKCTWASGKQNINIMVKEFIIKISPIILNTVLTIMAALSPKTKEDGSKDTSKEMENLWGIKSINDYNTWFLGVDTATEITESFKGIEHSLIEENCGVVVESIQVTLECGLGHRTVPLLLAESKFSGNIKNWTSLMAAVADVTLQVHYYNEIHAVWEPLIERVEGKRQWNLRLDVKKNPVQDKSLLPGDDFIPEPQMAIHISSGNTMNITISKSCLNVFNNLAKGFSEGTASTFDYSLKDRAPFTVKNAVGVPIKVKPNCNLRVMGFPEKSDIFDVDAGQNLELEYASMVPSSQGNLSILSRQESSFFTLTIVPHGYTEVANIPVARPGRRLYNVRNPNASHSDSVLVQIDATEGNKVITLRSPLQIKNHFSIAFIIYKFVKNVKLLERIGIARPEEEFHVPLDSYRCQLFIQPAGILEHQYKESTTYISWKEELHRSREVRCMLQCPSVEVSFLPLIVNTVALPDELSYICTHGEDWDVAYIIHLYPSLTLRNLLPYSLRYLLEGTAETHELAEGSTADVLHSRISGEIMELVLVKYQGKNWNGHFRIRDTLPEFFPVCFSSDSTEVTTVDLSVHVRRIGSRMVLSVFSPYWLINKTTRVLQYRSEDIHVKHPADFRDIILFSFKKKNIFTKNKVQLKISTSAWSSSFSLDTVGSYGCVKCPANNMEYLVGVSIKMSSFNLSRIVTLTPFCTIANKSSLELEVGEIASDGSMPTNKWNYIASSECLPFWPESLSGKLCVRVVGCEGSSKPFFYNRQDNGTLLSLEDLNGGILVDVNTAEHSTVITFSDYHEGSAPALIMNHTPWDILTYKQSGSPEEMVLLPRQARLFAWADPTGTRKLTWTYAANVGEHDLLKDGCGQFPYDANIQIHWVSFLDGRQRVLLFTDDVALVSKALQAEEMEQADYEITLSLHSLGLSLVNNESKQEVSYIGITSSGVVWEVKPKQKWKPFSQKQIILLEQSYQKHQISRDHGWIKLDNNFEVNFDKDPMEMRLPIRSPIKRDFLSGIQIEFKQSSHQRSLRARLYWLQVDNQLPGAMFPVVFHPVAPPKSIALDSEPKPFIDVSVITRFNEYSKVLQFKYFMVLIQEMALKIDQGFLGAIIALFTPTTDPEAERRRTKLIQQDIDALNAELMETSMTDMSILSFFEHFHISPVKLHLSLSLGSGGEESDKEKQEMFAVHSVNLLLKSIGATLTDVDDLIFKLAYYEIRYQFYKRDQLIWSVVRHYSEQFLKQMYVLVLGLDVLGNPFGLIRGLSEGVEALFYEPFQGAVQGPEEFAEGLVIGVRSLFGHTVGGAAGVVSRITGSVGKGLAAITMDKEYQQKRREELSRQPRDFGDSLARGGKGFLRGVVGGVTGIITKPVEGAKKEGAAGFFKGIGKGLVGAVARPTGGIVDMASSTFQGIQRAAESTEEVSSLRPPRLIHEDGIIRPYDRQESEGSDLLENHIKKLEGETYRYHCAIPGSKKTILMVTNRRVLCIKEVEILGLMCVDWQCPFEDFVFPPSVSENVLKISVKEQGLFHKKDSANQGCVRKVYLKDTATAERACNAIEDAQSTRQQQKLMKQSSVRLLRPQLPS
# UniProt P18206: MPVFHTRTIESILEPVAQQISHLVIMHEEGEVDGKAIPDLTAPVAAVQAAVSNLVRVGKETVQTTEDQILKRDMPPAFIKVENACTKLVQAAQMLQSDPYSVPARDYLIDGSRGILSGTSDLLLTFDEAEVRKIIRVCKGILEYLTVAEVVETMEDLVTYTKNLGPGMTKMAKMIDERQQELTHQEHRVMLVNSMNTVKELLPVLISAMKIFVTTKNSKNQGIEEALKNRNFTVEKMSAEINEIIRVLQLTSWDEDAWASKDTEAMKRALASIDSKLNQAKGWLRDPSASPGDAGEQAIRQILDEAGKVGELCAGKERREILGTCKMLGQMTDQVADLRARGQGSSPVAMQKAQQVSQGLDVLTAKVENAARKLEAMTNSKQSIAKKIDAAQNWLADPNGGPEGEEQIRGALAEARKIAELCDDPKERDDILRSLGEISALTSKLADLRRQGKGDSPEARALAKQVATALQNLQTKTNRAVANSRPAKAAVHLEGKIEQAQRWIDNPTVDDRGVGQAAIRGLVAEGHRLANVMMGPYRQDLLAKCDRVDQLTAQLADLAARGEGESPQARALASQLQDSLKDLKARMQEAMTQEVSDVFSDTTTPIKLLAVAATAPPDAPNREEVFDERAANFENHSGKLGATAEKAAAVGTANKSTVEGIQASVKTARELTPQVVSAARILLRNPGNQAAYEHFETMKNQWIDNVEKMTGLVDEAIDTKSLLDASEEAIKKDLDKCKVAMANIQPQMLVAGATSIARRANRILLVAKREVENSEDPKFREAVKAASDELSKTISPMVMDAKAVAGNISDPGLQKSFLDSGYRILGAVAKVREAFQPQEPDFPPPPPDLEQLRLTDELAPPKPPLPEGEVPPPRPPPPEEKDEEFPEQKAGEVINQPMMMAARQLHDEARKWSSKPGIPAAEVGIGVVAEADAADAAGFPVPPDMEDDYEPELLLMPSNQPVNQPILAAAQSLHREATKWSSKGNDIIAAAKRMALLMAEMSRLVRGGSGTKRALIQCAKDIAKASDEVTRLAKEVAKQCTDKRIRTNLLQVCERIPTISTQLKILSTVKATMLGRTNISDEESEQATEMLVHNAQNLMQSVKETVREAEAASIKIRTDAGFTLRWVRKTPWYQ
# UniProt P08670, whole entry, looked up: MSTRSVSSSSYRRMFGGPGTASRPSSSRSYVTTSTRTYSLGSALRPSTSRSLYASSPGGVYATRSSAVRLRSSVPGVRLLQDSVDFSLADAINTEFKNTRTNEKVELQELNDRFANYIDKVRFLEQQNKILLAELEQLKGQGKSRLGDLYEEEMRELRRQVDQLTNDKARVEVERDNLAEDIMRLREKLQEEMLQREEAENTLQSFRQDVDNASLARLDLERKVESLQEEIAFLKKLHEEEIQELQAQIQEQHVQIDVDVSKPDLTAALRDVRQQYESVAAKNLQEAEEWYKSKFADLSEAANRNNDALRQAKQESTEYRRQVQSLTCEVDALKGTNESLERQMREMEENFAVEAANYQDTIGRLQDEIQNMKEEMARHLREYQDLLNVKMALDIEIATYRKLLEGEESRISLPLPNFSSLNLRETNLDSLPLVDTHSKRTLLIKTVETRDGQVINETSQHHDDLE
# UniProt Q9UK41: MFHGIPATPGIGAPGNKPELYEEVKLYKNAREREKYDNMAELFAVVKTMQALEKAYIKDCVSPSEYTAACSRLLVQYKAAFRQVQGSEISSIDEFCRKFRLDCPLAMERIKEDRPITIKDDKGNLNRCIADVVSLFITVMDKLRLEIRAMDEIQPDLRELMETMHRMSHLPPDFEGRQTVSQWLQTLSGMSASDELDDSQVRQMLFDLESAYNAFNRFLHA
# Compound: Cc1cc(ccc1-c1ccccc1)C(=O)N1CCCN(CC1)C(=O)CCl [compound 10]
# Assay: probe-labelled cysteine peptide fold change vs DMSO (competition) (log2 fold change); higher = less target engagement (more negative = stronger competition)
# Details: THP-1, incubation time: 4 h
# 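Also: competitive profiling in live THP-1 cells: cysteine peptides tagged with an iodoacetamide desthiobiotin (IA-DTB) probe, intensity after compound treatment relative to DMSO-treated cells.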
Target,probe-labelled cysteine peptide fold change (10 µM),probe-labelled cysteine peptide fold change (50 µM)
VPS39_Q96JC1_239_CALNWTDIPVAMEHQPPYIIAVLPR (UniProt Q96JC1),0.024,-0.149
VCP_P55072_209_EDEEESLNEVGYDDIGGCRK (UniProt P55072),-0.234,0.0631
WARS_P23381_394_QFGGNCDVDVSFMYLTFFLEDDDKLEQIRK (UniProt P23381),-0.0218,0.043
VRK3_Q8IV63_244_LYSTPLLAIPTCMGFGVHQDK (UniProt Q8IV63),-0.0457,-0.143
VPS29_Q9UBQ0_15_CNSLPAK (UniProt Q9UBQ0),-0.00536,0.0756
VCP_P55072_572_QAAPCVLFFDELDSIAK (UniProt P55072),0.0188,-0.0785
VPS13C_Q709C8_2906_WNYIASSECLPFWPESLSGK (UniProt Q709C8),-0.0311,0.127
VCL_P18206_545_CDRVDQLTAQLADLAAR (UniProt P18206),0.181,0.164
VIM_P08670_328_RQVQSLTCEVDALK (UniProt P08670),0.00911,-0.139
VCP_P55072_691_MTNGFSGADLTEICQR (UniProt P55072),0.351,-0.0625
UTP20_O75691_2571_VLYLLELYCEDK (UniProt O75691),0.0446,0.184
WAPL_Q7Z5K2_1170_FLSFMNLTCAVGTTGQK (UniProt Q7Z5K2),-0.173,-0.476
VPS28_Q9UK41_70_DCVSPSEYTAACSR (UniProt Q9UK41),0.508,0.178
VCP_P55072_535_AIANECQANFISIK (UniProt P55072),-0.148,-0.299

# Part of the list above in a different format.
Target	probe-labelled cysteine peptide fold change (10 µM)	probe-labelled cysteine peptide fold change (50 µM)
VCP_P55072_209_EDEEESLNEVGYDDIGGCRK (UniProt P55072)	-0.234	0.0631
VPS13C_Q709C8_2906_WNYIASSECLPFWPESLSGK (UniProt Q709C8)	-0.0311	0.127
VCL_P18206_545_CDRVDQLTAQLADLAAR (UniProt P18206)	0.181	0.164
VCP_P55072_691_MTNGFSGADLTEICQR (UniProt P55072)	0.351	-0.0625

# Source: the supplement of paper PMC12067093, “Discovery and optimisation of a covalent ligand for TRIM25 and its application to targeted protein ubiquitination” (Chemical Science, 2025)
